This assay deals with trypsin (human) (UniProt P07477). The experiment in a line: protease inhibition assay (FIG. 4).

Protein sequences, listed by entry. Tags and fused reporters are not part of them.
UniProt P07477: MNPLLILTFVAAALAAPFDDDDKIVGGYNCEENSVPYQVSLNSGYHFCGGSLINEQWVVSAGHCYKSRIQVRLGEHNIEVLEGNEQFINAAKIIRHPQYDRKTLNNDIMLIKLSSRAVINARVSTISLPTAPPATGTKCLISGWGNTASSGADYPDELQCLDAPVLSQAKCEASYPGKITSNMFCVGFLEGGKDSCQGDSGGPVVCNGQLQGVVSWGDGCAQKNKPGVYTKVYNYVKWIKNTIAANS

No constants are given. Whether binding was seen depends on the method and setting. Some entries that bind do so weakly or less than the wild type.

B1: corn trypsin inhibitor (protein, UniProt P01088 29-155, looked up)
chain: SAGTSCVPGWAIPHNPLPSCRWYVTSRTCGIGPRLPWPELKRRCCRELADIPAYCRCTALSILMDGAIPPGPDAQLEGRLEDLPGCPREVQRGFAATLVTEAECNLATISGVAECPWILGGGTMPSK
Consider B1, for which the binding entry is recorded as “binds”.

Values taken from patent US20180118786A1, “NOVEL lNHIBITORS OF THE ENZYME ACTIVATED FACTOR XII (FXIIA)” (ECOLE POLYTECHNIQUE FEDERALE DE LAUSANNE (EPFL), priority 2015, published 2018).
